{"source": "patent US20260263517A1", "about": "“THERAPEUTIC METHODS WITH TARGET-LINKED SMALL MOLECULES AND ANTI-TARGET CAR T CELLS” (Seattle Children's Hospital (dba Seattle Children's …, priority 2022, published 2026)", "origin": "cited, not measured here", "conditions": "end of intravenous infusion of 0.1 mg/kg; cited from earlier work", "note": "At least one read-out could not be matched to a standard name with certainty."}
{"compound": "NC1=NC2N=CC(CNc3ccc(C(=O)N[C@@H](CCC(=O)NCCNC(=S)Nc4ccc(-c5c6ccc(=O)cc-6oc6cc(O)ccc56)c(C(=O)O)c4)C(=O)O)cc3)=NC2C(=O)N1", "note": "(stereo partly shown) [EC17, FA-(γ)-ethylenediamine-FITC]", "values": [{"measurement": "time at which maximal plasma concentration (Cmax) was reached", "result": 10, "unit": "min"}]}
